Test [1] can be described thus: A High-Content qHTS Against Drug Library for the Identification of Small Molecules that Inhibit DYT1 Early Onset Primary Dystonia-Associated Cell Pathology (AID 1645839). To be noted: HEK293 Flp-In EGFP-delE TorsinA, punctate imaging, 48 h; measured here: cell count cytotoxicity. Summed up:
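Cells were seeded and left for 24 h, then dosed with compound alongside tetracycline induction of mutant EGFP-TorsinA. They were incubated for 48 h, fixed in 4% paraformaldehyde, permeabilized and imaged for mislocalization (%pathology) and cell count.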

Test [2] is described as follows: qHTS Assay for Modulators of Human Peripheral Myelin Protein 22 (PMP22) Expression/Activity (AID 1967). To be noted: Cell-based PMP22 reporter, dual-color luciferase ratio. Summed up:
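MSC80 mouse Schwann cells stably carrying Pmp22 promoter–green click beetle luciferase plus EF-alpha–red luciferase control were dosed for 24h at 37 °C. Dual-colour luminescence was filter-overlap corrected; %Activity came from green/red ratio versus untreated cells.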
(In qHTS, concentration-response curves come from the screen itself.)

The nature of test [3]: Nrf2 qHTS screen for inhibitors: Validation (AID 493153). To be noted: A549 ARE-Fluc reporter, 18-24 h; AC50: CellTiter-Fluor fluorescence read, measured here: cytotoxicity CellTiter-Fluor AC50; viability change: measured here: cytotoxicity max response. Summed up:
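A549 ARE_Fluc, 5% FBS OPTI-MEM; cpd titration, 18-24 h, 37°C/5% CO2. Read 1: CellTiter-Fluor (Ex 405/Em 525), cytotox. Read 2: luciferase lum, Nrf2 activity.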

A short description of test [4]: qHTS assay for small molecule agonists of retinoid X receptor alpha signaling (AID 588544). To be noted: HEK293T RXRa-UAS-bla, beta-lactamase reporter, 18 h; 530 nm emission.
Test [5] in a line: qHTS assay for small molecule antagonists of retinoid X receptor alpha signaling (AID 588546).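 Also: cells stimulated with 9-cis-retinoic acid as agonist; % is scaled to controls: 0 for no effect and ±100 for the full control effect.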 To be noted: HEK293T RXRa-UAS-bla, beta-lactamase ratio, antagonist mode; measured here: W530 green channel, cytotoxicity proxy. In outline: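 Beta-lactamase reporter inhibition, read as CCF4 fluorescence ratio (ex 405, em 460/530 nm) after 2 h at RT. HEK293T UAS-bla cells, 2500/well, were stimulated with 9-cis-RA at 500 or 100 nM final alongside test compound for 18 h at 37 C.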

Test [6] in a line: qHTS drug screen for cell cycle checkpoint inhibitors in PARPi-resistant BRCA-mutant ovarian cancer cell lines. (AID 1963452). To be noted: PEO1/OlaR viability, CellTiter-Glo luminescence, 96 h. Summed up: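 PEO1, PEO4 and PEO1/OlaR ovarian cancer cells, 600 per well, exposed 96 h at 37C to a dilution series. Viability read by CellTiter-Glo luminescence, normalized to DMSO and empty wells; activity summarized as Z-AUC.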

Test [7] is described as follows: qHTS for identification of novel therapeutic agents for treatment of microphthalmiaassociated transcription factor (MiT) renal cell carcinoma (RCC) (AID 1963991). To be noted: TFE3-RCC viability, CellTiter-Glo, 48 h. Summed up:
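UOK109/UOK124/UOK145 (TFE3 fusions, three partners); 500 cells/well; MIPE v4.0, 1912 cpds, 11 conc.; 48 h, 37 C; CellTiter-Glo, 15 min RT; lum. Norm.: DMSO 100%, empty 0%.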

A short description of test [8]: qHTS assay for small molecule antagonists of androgen receptor signaling (AID 588516). To be noted: AR-UAS-bla HEK293, beta-lactamase ratio, antagonist mode, 16 h; measured here: W460 blue channel fit. Summed up:
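Antagonist mode: inhibition of R1881-stimulated (10 nM final) bla reporter in GeneBLAzer AR HEK 293 cells, 16 h at 37C, compounds titrated. IC50 and efficacy from Hill-equation fits of 405/460–530 nm FRET ratios.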

Test [9] is described as follows: qHTS assay for small molecule antagonists of peroxisome proliferator-activated receptor delta signaling (AID 588535).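 Also: cells co-treated with a PPAR-delta agonist as stimulator during compound exposure.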 To be noted: HEK293T PPARd-UAS-bla, beta-lactamase FRET ratio, 18 h; 460 nm channel. Summed up:
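Fluorescence from CCF4-loaded GeneBLAzer PPAR-delta-UAS-bla HEK293T cells (2 hrs RT loading) quantified reporter inhibition after an 18 hr, 37 C compound exposure across a titration.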

Test [10] in a line: qHTS Validation Assay to Find Inhibitors of Chronic Active B-Cell Receptor Signaling (AID 485345). To be noted: ABC-DLBCL cells, chronic BCR signaling reporter. In outline: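 TMD8 ABC-DLBCL cells stably carrying doxycycline-inducible IkappaBalpha–green luciferase fusion plus unfused red luciferase; compounds 46 uM to 3 nM, 4 h at 37C with doxycycline. Corrected green/red luminescence ratio normalized to 10 uM MG-132 and basal cell wells; curves fitted.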

Test [11] in a line: S16 Schwann cell PMP22 intronic element beta-lactamase assay (AID 624044). To be noted: S16 rat Schwann cells, PMP22 element beta-lactamase FRET, 24 h; measured here: 460 nm blue channel. Summed up: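 Beta-lactamase reporter under a PMP22 intronic regulatory element in stable S16 rat Schwann cells; 24 h compound exposure. 460 nm blue signal normalized between DMSO (0%) and potassium clavulanate, with 535 nm FRET tracking viability; curves classed by r2 and response.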

The mark [12] stands for this setting: measured here: red reporter channel AC50, EF-alpha promoter control reporter in MSC80 mouse Schwann cells.

The other results are listed elsewhere or left out. Shown are side measurements of this screen, not its main read-out; they come without a call. For some assays here: Most of these compounds were active or inconclusive in the main read-out, so they are no random draw. For some assays here: Potencies come from curve fits of mixed quality, noted in brackets.

The AC50 is the concentration giving half of the maximal activity seen. On to `CN1C(=S)CN=C(c2ccccc2)c2cc(Cl)ccc21`, for which the AC50 in test [1] is 25.1 µM [falling, single point].

With `C[C@@H]1O[C@@H](O[C@H]2C[C@@H](O)[C@]3(CO)[C@H]4[C@H](O)C[C@]5(C)[C@@H](C6=CC(=O)OC6)CC[C@]5(O)[C@@H]4CC[C@]3(O)C2)[C@H](O)[C@H](O)[C@H]1O`, the concentration at half-maximal activity (AC50) was 84.9 µM [falling, single point] in test [2] (setting [12]); 0.0651 µM [falling, full curve] in [3]; 2.51 µM [falling, partial curve, poor fit] in test [1]; 0.11 µM [falling, full curve] in test [6] (measured here: PEO1 parental viability); 0.049 µM [falling, full curve] in [6] (measured here: PEO4 viability); 0.0469 µM [falling, full curve] in test [7] (measured here: UOK124 cell viability). Further, the concentration at half-maximal activity (AC50) in test [7] (measured here: UOK145 cell viability) was 0.0235 µM [falling, full curve]. Besides, the viability change in test [3] is -41.2%. The max response in test [4] came to 37.1%; in test [5], 50%.

For the molecule `Clc1ccc(CSC(Cn2ccnc2)c2ccc(Cl)cc2Cl)cc1` (centres undefined), the AC50 in [1] is 11.2 µM [falling, partial curve, poor fit].

For the molecule `CCN[C@H](C)Cc1cccc(C(F)(F)F)c1`, the half-maximal activity concentration (AC50) in test [1] was 56.2 µM [falling, single point].

Turning to `CC1(C)CC/C(=C/c2ccc(Cl)cc2)C1(O)Cn1cncn1` (centres undefined), the AC50 in [1] was 35.5 µM [rising, partial curve, poor fit].

On to `CN1CC[C@]23c4c5ccc(O)c4O[C@H]2[C@@H](O)CC[C@H]3[C@H]1C5`, for which the half-maximal activity concentration (AC50) in test [1] is 7.94 µM [rising, single point].

Consider `C[C@H]1O[C@@H](O[C@H]2[C@@H](O)C[C@H](O[C@H]3[C@@H](O)C[C@H](O[C@H]4CC[C@@]5(C)[C@H](CC[C@@H]6[C@@H]5CC[C@]5(C)[C@@H](C7=CC(=O)OC7)CC[C@]65O)C4)O[C@@H]3C)O[C@@H]2C)C[C@H](O)[C@@H]1O`, for which the half-maximal activity concentration (AC50) is 0.891 µM [falling, full curve] in [8] and 2.82 µM [falling, full curve] in test [1]. Besides, the max response in test [9] came out at 98.8%; in [4], 38.7%; in test [5] it was 46.8%.

Consider `CC1N=C(N)OC1c1ccccc1` (centres undefined), for which the concentration at half-maximal activity (AC50) in test [1] is 35.5 µM [falling, single point].

On to `c1ccc2c(c1)OCC(C1=NCCN1)O2` (centres undefined), for which the AC50 in test [2] (measured here: green reporter channel AC50, mouse Pmp22 promoter in mouse Schwann cells) is 23.9 µM [falling, full curve]; in [2] (setting [12]), 26.9 µM [falling, full curve]; in test [10] (measured here: CBG/CBR ratio read-out) it was 18.4 µM [falling, partial curve]; in test [10] (measured here: CBR control luciferase (viability counter)), 8.2 µM [falling, partial curve]; in test [3] it was 16.4 µM [falling, partial curve, poor fit]; in [11], 14.1 µM [falling, single point]. Besides, in test [1], the concentration at half-maximal activity (AC50) was 12.6 µM [falling, single point]. Moreover, the viability change in [3] was -24%.

Take `CC(C)c1c(CN(C)C(C)Cc2ccccc2)n(C)n(-c2ccccc2)c1=O` (centres undefined): the AC50 in test [1] was 1.26 µM [falling, full curve].

On to `Nc1ccc(N)cc1`, for which the concentration at half-maximal activity (AC50) in test [1] is 35.5 µM [falling, single point].

Take `CCc1cc(OC)c(C[C@H](C)N)cc1OC`: in test [1], the concentration at half-maximal activity (AC50) was 70.8 µM [falling, single point].

On to `Cc1nc2ccccc2c(=O)n1-c1ccccc1Cl`, for which the concentration at half-maximal activity (AC50) in test [1] is 28.2 µM [falling, single point].

Take `COc1ccc2c3c1O[C@H]1[C@@H](O)C=C[C@H]4[C@@H](C2)N(C)CC[C@@]341`: the AC50 in test [1] was 31.6 µM [falling, single point].

For `CCN(CC)CCc1c[nH]c2ccccc12`, the AC50 in test [1] is 70.8 µM [falling, single point].

With `CC(=O)OC1(c2ccccc2)CCN(CCc2ccccc2)CC1`, the AC50 in test [1] was 1.41 µM [falling, full curve, poor fit].

In the case of `C[C@H](N)[C@H](O)c1ccc(O)c(O)c1`, the AC50 in test [1] is 35.5 µM [rising, single point].

Regarding `CN(C)CCc1ccc(O)cc1`, the AC50 in test [1] is 12.6 µM [rising, partial curve, poor fit].

Turning to `CCC(=O)C(CC(C)N(C)C)(c1ccccc1)c1ccccc1` (centres undefined), in test [1], the concentration at half-maximal activity (AC50) is 50.1 µM [falling, single point].

With `NC1(c2ccccc2)CCCCC1`, the concentration at half-maximal activity (AC50) in [1] was 31.6 µM [falling, single point].

Take `Clc1ccc(C(OCCN2CCCCC2)c2ccccc2)cc1` (centres undefined): in [1], the AC50 is 22.4 µM [falling, single point].

Regarding `COc1cc(C[C@@H](C)N)c(OC)cc1Br`, the concentration at half-maximal activity (AC50) in test [1] was 8.91 µM [falling, partial curve, poor fit].

As to `COc1ccc2c(c1OC)C(=O)O[C@H]2[C@@H]1c2cc3c(cc2CCN1C)OCO3`, the AC50 in test [2] (setting [12]) was 84.9 µM [falling, single point]; in test [1], 0.891 µM [falling, full curve, poor fit].

Source of the values: PubChem BioAssay (NCATS).
